In PMC10458163 one finds binding data, which are given here for one substance.

Chains of the proteins cited; added tags and fusions are not shown.
UniProt P61088: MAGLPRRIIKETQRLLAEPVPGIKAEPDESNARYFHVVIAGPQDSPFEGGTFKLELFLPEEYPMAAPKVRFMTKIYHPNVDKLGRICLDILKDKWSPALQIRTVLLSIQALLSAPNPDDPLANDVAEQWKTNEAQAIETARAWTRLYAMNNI

The assay addresses T1, Flag-OTUD6A (human) (UniProt Q7L8S5).
T1 sequence: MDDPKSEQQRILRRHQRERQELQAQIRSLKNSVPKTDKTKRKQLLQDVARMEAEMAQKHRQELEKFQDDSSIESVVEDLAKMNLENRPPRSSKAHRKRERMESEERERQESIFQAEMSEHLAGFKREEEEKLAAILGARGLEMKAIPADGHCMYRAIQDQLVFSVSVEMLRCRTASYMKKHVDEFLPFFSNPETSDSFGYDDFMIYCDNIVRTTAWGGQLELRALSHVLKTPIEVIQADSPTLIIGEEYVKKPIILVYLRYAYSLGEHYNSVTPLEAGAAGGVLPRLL
Put plainly: affinity purification with mass spectrometry; Flag-OTUD6A or empty vector overexpressed in HEK 293 cells, enriched with Flag antibody (FLAG-M2 beads), mass spectrometry.

No constants are given. Whether binding was seen depends on the method and setting. In cells and extracts the contact can be indirect. Here binding means that the protein was enriched with, or labelled near, the bait; the list need not be complete. Tags and fused reporters may be left off the sequences shown.

For the substance “ubiquitin-conjugating enzyme UBE2N (UBC13) (from UniProt P61088 1-152)”, the binding entry is “binds”.
